Results as given in PMC10761714.

What follows are binders tested against GST-MBP-fused mouse STYXL1 protein (mouse) (assay: affinity purification with mass spectrometry; GST-MBP–STYXL1 on glutathione–Sepharose 4B; pre-cleared WT mouse testes lysate (RIPA) incubated at 4 °C for 4-6 h; washed with 50 mM Tris-HCl pH 8.0, 150 mM NaCl, 2 mM MgCl2, 5% glycerol; eluted with 20 mM GSH; LC-MS/MS; GST-MBP as control; only the target purified).

| Binder | binding |
| --- | --- |
| CCT3 (protein, UniProt P80318 1-545) MMGHRPVLVLSQNTKRESGRKVQSGNINAAKTIADIIRTCLGPKSMMKMLLDPMGGIVMTNDGNAILREIQVQHPAAKSMIEISRTQDEEVGDGTTSVIILAGEMLSVAEHFLEQQMHPTVVISAYRMALDDMISTLKKISTPVDVNNREMMLSIINSSITTKVISRWSSLACNIALDAVKTVQFEENGRKEIDIKKYARVEKIPGGIIEDSCVLRGVMINKDVTHPRMRRYIKNPRIVLLDSSLEYKKGESQTDIEITREEDFTRILQMEEEYIHQLCEDIIQLKPDVVITEKGISDLAQHYLMRANVTAIRRVRKTDNNRIARACGARIVSRPEELREDDVGTGAGLLEIKKIGDEYFTFITDCKDPKACTILLRGASKEILSEVERNLQDAMQVCRNVLLDPQLVPGGGASEMAVAHALTEKSKAMTGVEQWPYRAVAQALEVIPRTLIQNCGASTIRLLTSLRAKHTQESCETWGVNGETGTLVDMKELGIWEPLAVKLQTYKTAVETAVLLLRIDDIVSGHKKKGDDQNRQTGAPDAGQE | binds |
| CCT2 (protein, UniProt P80314 1-535) MASLSLAPVNIFKAGADEERAETARLSSFIGAIAIGDLVKSTLGPKGMDKILLSSGRDAALMVTNDGATILKNIGVDNPAAKVLVDMSRVQDDEVGDGTTSVTVLAAELLREAESLIAKKIHPQTIISGWREATKAAREALLSSAVDHGSDEARFWQDLMNIAGTTLSSKLLTHHKDHFTKLAVEAVLRLKGSGNLEAIHVIKKLGGSLADSYLDEGFLLDKKIGVNQPKRIENAKILIANTGMDTDKIKIFGSRVRVDSTAKVAEIEHAEKEKMKEKVERILKHGINCFINRQLIYNYPEQLFGAAGVMAIEHADFAGVERLALVTGGEIASTFDHPELVKLGSCKLIEEVMIGEDKLIHFSGVALGEACTIVLRGATQQILDEAERSLHDALCVLAQTVKDPRTVYGGGCSEMLMAHAVTQLANRTPGKEAVAMESFAKALRMLPTIIADNAGYDSADLVAQLRAAHSEGHITAGLDMKEGTIGDMAVLGITESFQVKRQVLLSAAEAAEVILRVDNIIKAAPRKRVPDHHPC | binds |

Continued, values first:

| binding | Binder |
| --- | --- |
| binds | CCT7 (protein, UniProt P80313 1-544) MMPTPVILLKEGTDSSQGIPQLVSNISACQVIAEAVRTTLGPRGMDKLIVDGRGKATISNDGATILKLLDVVHPAAKTLVDIAKSQDAEVGDGTTSVTLLAAEFLKQVKPYVEEGLHPQIIIRAFRTATQLAVNKIKEIAVTVKKQDKVEQRKMLEKCAMTALSSKLISQQKVFFAKMVVDAVMMLDELLQLKMIGIKKVQGGALEESQLVAGVAFKKTFSYAGFEMQPKKYKNPKIALLNVELELKAEKDNAEIRVHTVEDYQAIVDAEWNILYDKLEKIHQSGAKVILSKLPIGDVATQYFADRDMFCAGRVPEEDLKRTMMACGGSIQTSVNALVPDVLGHCQVFEETQIGGERYNFFTGCPKAKTCTIILRGGAEQFMEETERSLHDAIMIVRRAIKNDSVVAGGGAIEMELSKYLRDYSRTIPGKQQLLIGAYAKALEIIPRQLCDNAGFDATNILNKLRARHAQGGMWYGVDINNENIADNFQAFVWEPAMVRINALTAASEAACLIVSVDETIKNPRSTVDPPAPSAGRGRGQARFH |
| binds | CCT4 (protein, UniProt P80315 1-539) MPENVASRSGAPTAGPGSRGKSAYQDRDKPAQIRFSNISAAKAVADAIRTSLGPKGMDKMIQDGKGDVTITNDGATILKQMQVLHPAARMLVELSKAQDIEAGDGTTSVVIIAGSLLDSCTKLLQKGIHPTIISESFQKALEKGLEILTDMSRPVQLSDRETLLNSATTSLNSKVVSQYSSLLSPMSVNAVMKVIDPATATSVDLRDIKIVKKLGGTIDDCELVEGLVLTQKVANSGITRVEKAKIGLIQFCLSAPKTDMDNQIVVSDYAQMDRVLREERAYILNLVKQIKKTGCNVLLIQKSILRDALSDLALHFLNKMKIMVVKDVEREDIEFICKTIGTKPVAHIDQFTADMLGSAELAEEVSLNGSGKLFKITGCTSPGKTVTIVVRGSNKLVIEEAERSIHDALCVIRCLVKKRALIAGGGAPEIELALRLTEYSRTLSGMESYCVRAFADAMEVIPSTLAENAGLNPISTVTELRNRHAQGEKTTGINVRKGGISNILEEMVVQPLLVSVSALTLATETVRSILKIDDVVNTR |
| binds | CCT8 (protein, UniProt P42932 1-548) MALHVPKAPGFAQMLKDGAKHFSGLEEAVYRNIQACKELAQTTRTAYGPNGMNKMVINRLEKLFVTNDAATILRELEVQHPAAKMIVMASHMQEQEVGDGTNFVLVFAGALLELAEELLRIGLSVSEVISGYEIACKKAHEILPELVCCSAKNLRDVDEVSSLLRTSIMSKQYGSETFLAKLIAQACVSIFPDSGNFNVDNIRVCKILGSGIYSSSVLHGMVFKKETEGDVTSVKDAKIAVYSCPFDGMITETKGTVLIKTAEELMNFSKGEENLMDAQVKAIAGTGANVIVTGGKVADIALHYANKYNIMLVRLNSKWDLRRLCKTVGATALPKLTPPVQEEMGHCDSVYLSEVGDTQVVVFKHEKEDGAISTIVLRGSTDNLMDDIERAVDDGVNTFKVLTRDKRLVPGGGATEIELAKQITSYGETCPGLEQYAIKKFAEAFEAIPRALAENSGVKANEVISKLYSVHQEGNKNVGLDIEAEVPAVKDMLEASILDTYLGKYWAIKLATNAAVTVLRVDQIIMAKPAGGPKPPSGKKDWDDDQND |

These are yes or no findings as the source states them, for the method shown. Binding seen in cells or lysates may run through a third protein. A yes stands for co-enrichment or nearness to the bait. Other partners may have been found.
